# Experimental data published in patent US20150086511A1, “SURVIVAL, DIFFERENTIATION AND STRUCTURAL INTEGRATION OF HUMAN NEURAL STEM CELLS GRAFTED INTO THE ADULT RAT SPINAL CORD” (NEURALSTEM, INC., priority 2005, published 2015).
# “Also recorded” adds a separate entry of the source. For at least one compound, name, drawing or mass did not settle the structure.
# System: SOD1-G93A mice grafted with human NSCs
# Assay: Graft rejection and human NSC graft survival under immunosuppressive regimens in SOD1-G93A mice (ICC for HNu, CD4, CD8, DX5, Iba-1)
# Settings: 1 week and 1 month post-grafting
compound,measurement,value
C=CC[C@@H]1/C=C(\C)C[C@H](C)C[C@H](OC)[C@H]2O[C@@](O)(C(=O)C(=O)N3CCCC[C@H]3C(=O)O[C@H](/C(C)=C/[C@@H]3CC[C@@H](O)[C@H](OC)C3)[C@H](C)[C@@H](O)CC1=O)[C@H](C)C[C@@H]2OC [FK506],human NSC graft survival / rejection (HNu ICC),fails to reveal graft-derived nuclei; also recorded: fallen short of preventing rejection
